Measurements from PubChem BioAssay AID248 (DTP/NCI, 2004).
The list does not hold the whole screen: it is rich in T/C values a quarter to a half above the control, in often repeated tests (any T/C) and in doses without a T/C. Further doses and runs are listed elsewhere. T/C is the treated group as % of the vehicle group. Some doses have a count of surviving animals in place of a T/C: the source files T/C as zero there, which appears to mark a toxic dose or a test without result, not a measured value. Some survivor counts are full or nearly so, which does not show that the dose was tolerated: the source hardly ever lists a survival T/C far under the control, and the zero likely stands for such cases as well. Survivors were counted at the toxicity check, usually on the fifth day, unless a day is given; later deaths do not show. Schedules are NCI's codes, read here as Q, the interval in days (D) or hours (H), X, the number of doses. Some schedule codes hold Z or #, which are not explained here. Where survival is the endpoint, the PubChem record calls one and a half times the control and up active, and a quarter to a half above the control has no call in these data; cut-offs in other NCI protocols can differ.

System: L1210 leukemia ip in BDF1 mice, survival T/C
Test: NCI In Vivo Anticancer Drug Screen. Data for tumor model L1210 Leukemia (intraperitoneal) in B6D2F1 (BDF1) mice
Settings: T/C endpoint: mean survival time, higher T/C = longer survival
[1] = dose: 400.0 mg/kg/injection, schedule: Q01DX001 (ip), vehicle: saline
[2] = dose: 200.0 mg/kg/injection, schedule: Q04DX003 (ip), vehicle: Klucel (hydroxypropylcellulose) (HPC)
[3] = dose: 60.0 mg/kg/injection, schedule: Q01DX001 (ip), vehicle: carboxymethylcellulose (CMC)
[4] = dose: 100.0 mg/kg/injection, schedule: Q04DX003 (ip), vehicle: Klucel (hydroxypropylcellulose) (HPC)
[5] = dose: 200.0 mg/kg/injection, schedule: Q01DX001 (ip), vehicle: saline with Tween-80
[6] = dose: 400.0 mg/kg/injection, schedule: Q01DX001 (ip), vehicle: saline with Tween-80
[7] = dose: 400.0 mg/kg/injection, schedule: Q01DX009 (ip), vehicle: Klucel (hydroxypropylcellulose) (HPC)
[8] = dose: 200.0 mg/kg/injection, schedule: Q01DX001 (ip), vehicle: saline
[9] = dose: 200.0 mg/kg/injection, schedule: Q01DX009 (ip), vehicle: saline with Tween-80
[10] = dose: 300.0 mg/kg/injection, schedule: Q01DX001 (ip), vehicle: other
[11] = dose: 400.0 mg/kg/injection, schedule: Q01DX009 (ip), vehicle: saline with Tween-80
[12] = dose: 100.0 mg/kg/injection, schedule: Q01DX009 (ip), vehicle: saline with Tween-80

O=C1C/C(=C\c2ccccc2O)C(=O)c2ccccc21
survivor count (dose: 100.0 mg/kg/injection, schedule: Q04DX002 (ip), vehicle: Klucel (hydroxypropylcellulose) (HPC)): 1 of 3
survivor count (dose: 200.0 mg/kg/injection, schedule: Q04DX002 (ip), vehicle: Klucel (hydroxypropylcellulose) (HPC)): 0 of 3
survivor count (dose: 400.0 mg/kg/injection, schedule: Q04DX002 (ip), vehicle: Klucel (hydroxypropylcellulose) (HPC)): 0 of 3

O=C1C=C(Nc2ccccc2)C(=O)N1c1ccccc1
survivor count [1]: 6 of 6

N#C[CH2][Sn]([c]1ccccc1)([c]1ccccc1)[c]1ccccc1
survivor count (dose: 100.0 mg/kg/injection, schedule: Q04DX002 (ip), vehicle: saline with Tween-80): 0 of 3
survivor count (dose: 200.0 mg/kg/injection, schedule: Q04DX002 (ip), vehicle: saline with Tween-80): 0 of 3
survivor count (dose: 400.0 mg/kg/injection, schedule: Q04DX002 (ip), vehicle: saline with Tween-80): 0 of 3

O=[N+]([O-])c1ccccc1SNc1ccccc1
survivor count [2]: 3 of 6

CSc1ccccc1C1CCCCCC1OS(=O)(=O)c1ccc(C)cc1 (stereo not drawn)
survivor count [3]: 1 of 6

CCOc1ccc(NC(C)=O)c(O)c1
survivor count (dose: 300.0 mg/kg/injection, schedule: Q01DX001 (ip), vehicle: saline): 0 of 6

O=C1NC(C2CC3C=CC2C3)Nc2ccccc21 (stereo not drawn)
survivor count [4]: 2 of 6
survivor count [2]: 0 of 6
survivor count (dose: 400.0 mg/kg/injection, schedule: Q04DX003 (ip), vehicle: Klucel (hydroxypropylcellulose) (HPC)): 0 of 6

NNc1ncn[nH]1
survivor count (dose: 100.0 mg/kg/injection, schedule: Q01DX001 (ip), vehicle: saline with Tween-80): 0 of 6
survivor count [5]: 0 of 6
survivor count [6]: 0 of 6

COc1ccc(N=NN(C)C)cc1
survivor count (dose: 75.0 mg/kg/injection, schedule: Q01DX001 (ip), vehicle: saline with Tween-80): 5 of 10
survivor count (dose: 150.0 mg/kg/injection, schedule: Q01DX001 (ip), vehicle: saline with Tween-80): 0 of 10

O=[N+]([O-])c1cccn2ncnc12
survivor count (dose: 100.0 mg/kg/injection, schedule: Q01DX001 (ip), vehicle: acetone): 0 of 6
survivor count (dose: 200.0 mg/kg/injection, schedule: Q01DX001 (ip), vehicle: acetone): 0 of 6
survivor count (dose: 400.0 mg/kg/injection, schedule: Q01DX001 (ip), vehicle: acetone): 0 of 6

O=C1NC(=O)C(=O)C(=O)N1
survivor count [1]: 3 of 6

O=C(CC(=O)c1ccccc1)Nc1ccc([N+](=O)[O-])cn1
survivor count [4]: 6 of 6

O=C(CC(CC(=O)c1ccccc1)c1ccncc1)c1ccccc1
survivor count (dose: 100.0 mg/kg/injection, schedule: Q01DX001 (ip), vehicle: carboxymethylcellulose (CMC)): 4 of 4

NC(N)=NN=C(c1ccccc1)c1ccccc1
survivor count (dose: 120.0 mg/kg/injection, schedule: Q01DX Z (ip), vehicle: other): 0 of 6

COc1ccc(CCC(C)=O)cc1OC
survivor count [7]: 3 of 6

[Mn+2].[NH-]CC(=O)O.[NH-]CC(=O)O
survivor count [8]: 1 of 6
survivor count [1]: 0 of 6

CCC/C=C(C)/C=N\NC(=O)c1ccc[n+](C)c1
survivor count [9]: 2 of 3

COc1ccc2c3c1O[C@H]1C(O)C=C[C@H]4[C@@H](C2)N(C)CC[C@]314 (stereo partly drawn)
survivor count [1]: 0 of 6

C[C@@H]1CCC[C@@H](NC(=O)N(CCCl)N=O)C1
T/C (dose: 23.0 mg/kg/injection, schedule: Q01DX001 (ip), vehicle: saline with Tween-80): 131 % of control
survivor count (dose: 300.0 mg/kg/injection, schedule: Q01DX009 (ip), vehicle: Klucel (hydroxypropylcellulose) (HPC)): 5 of 6

CNc1ncnc2c1ncn2C1CC(CO)C(O)C1O (stereo not drawn)
survivor count (dose: 200.0 mg/kg/injection, schedule: Q01DX009 (ip), vehicle: saline): 6 of 6

C(=N\Nc1ccc2ccccc2n1)/c1ccccn1
survivor count (dose: 150.0 mg/kg/injection, schedule: Q01DX001 (ip), vehicle: other): 0 of 6
survivor count [10]: 0 of 6

C#CC(NCCC(C)CC(C)(C)C)C(C)C (stereo not drawn)
survivor count (dose: 400.0 mg/kg/injection, schedule: Q04DX003 (ip), vehicle: saline with Tween-80): 5 of 6

O=Cc1ccccc1OCCCC[P+](c1ccccc1)(c1ccccc1)c1ccccc1
survivor count (dose: 40.0 mg/kg/injection, schedule: Q01DX001 (ip), vehicle: saline): 0 of 4
survivor count (dose: 80.0 mg/kg/injection, schedule: Q01DX001 (ip), vehicle: saline): 0 of 4
survivor count (dose: 100.0 mg/kg/injection, schedule: Q01DX001 (ip), vehicle: saline): 0 of 6
survivor count [8]: 0 of 6
survivor count [1]: 0 of 6

O=[N+]([O-])c1ccc(NCCO)c([N+](=O)[O-])c1
survivor count [11]: 2 of 6

CC(=O)c1ccc(NC(=S)Nc2ccc(C(C)=O)cc2)cc1
survivor count (dose: 160.0 mg/kg/injection, schedule: Q01DX009 (ip), vehicle: saline with Tween-80): 6 of 6

CCCCC1(C2CCCC2)NC(C)(C)CC(C)O1 (stereo not drawn)
survivor count [11]: 1 of 6

CCOC(=O)C(=O)C1CCCCC1=O (stereo not drawn)
survivor count [1]: 2 of 4

CN1CCC=C(C(=O)N2c3ccccc3Sc3ccccc32)C1
survivor count (dose: 200.0 mg/kg/injection, schedule: Q04DX003 (ip), vehicle: saline): 1 of 6
survivor count (dose: 400.0 mg/kg/injection, schedule: Q04DX003 (ip), vehicle: saline): 0 of 6

CC(C)c1ccc(C(c2c(O)c3ccccc3oc2=O)c2c(O)c3ccccc3oc2=O)cc1
survivor count [7]: 6 of 6

CCCCCCCCC1N(C)CCCN1C
survivor count [12]: 0 of 6
survivor count [5]: 5 of 6
survivor count [9]: 3 of 6
survivor count [6]: 1 of 6

CCCCCCCCCCCCCCCC(=O)Nc1ccc(C(=O)C[n+]2ccc3c(NC(=O)CCC(=O)OC)cccc3c2)cc1
survivor count [10]: 6 of 6

O=NN(CCCl)C(=O)Nc1cc(Cl)ccc1O
T/C (dose: 8.0 mg/kg/injection, schedule: Q01DX001 (ip), vehicle: carboxymethylcellulose (CMC)): 128 % of control
T/C (dose: 15.0 mg/kg/injection, schedule: Q01DX001 (ip), vehicle: carboxymethylcellulose (CMC)): 148 % of control
T/C (dose: 30.0 mg/kg/injection, schedule: Q01DX001 (ip), vehicle: carboxymethylcellulose (CMC)): 135 % of control
T/C [3]: 143 % of control
T/C (dose: 75.0 mg/kg/injection, schedule: Q01DX001 (ip), vehicle: carboxymethylcellulose (CMC)): 149 % of control
T/C (dose: 150.0 mg/kg/injection, schedule: Q01DX001 (ip), vehicle: carboxymethylcellulose (CMC)): 141 % of control
survivor count (dose: 150.0 mg/kg/injection, schedule: Q01DX009 (ip), vehicle: carboxymethylcellulose (CMC)): 4 of 6
survivor count (dose: 300.0 mg/kg/injection, schedule: Q01DX001 (ip), vehicle: carboxymethylcellulose (CMC)): 1 of 6

Cc1c2c(ccc3ccccc32)cc2cccc[n+]12
survivor count (dose: 8.0 mg/kg/injection, schedule: Q01DX Z (ip), vehicle: saline): 5 of 6
survivor count (dose: 16.0 mg/kg/injection, schedule: Q01DX Z (ip), vehicle: saline): 0 of 6

O=C1CCCCc2c1ccc(O)c2[N+](=O)[O-]
survivor count [12]: 3 of 3
survivor count [9]: 0 of 3

Oc1ccccc1OCCOCCOc1ccccc1O
T/C (dose: 200.0 mg/kg/injection, schedule: Q04DX002 (ip), vehicle: other): 128 % of control
survivor count (dose: 400.0 mg/kg/injection, schedule: Q04DX002 (ip), vehicle: other): 3 of 3

CCn1ncc2ccccc2c1=O
survivor count [1]: 1 of 6
